Measurements: patent US20210379589A1, “Microfluidic Chip For Analysis Of Cell Motility And Methods For Using Same” (The Johns Hopkins University, priority 2013, published 2021)
Entries after “also recorded” stand apart in the source; their conditions may differ. At least one structure is not confirmed: it was looked up by name or label, or the drawing left a doubt.

Experiments:
Bt549 cells = experiment: Microchannel migration device assay, Bt549 cells; assay type: cell-based; settings: 10 μM LY294002 (FIG. 9)
Protocol: Cell seeding and live cell migration experiments: Cells were grown to continency, trypsinized, and resuspended in serum-free medium at 2×10^6 cells/ml. 50 μl of cell suspension was added to the cell inlet well. Cells were incubated in the device for 5-10 minutes at 37° C. to allow initial cell seeding at the base of “Y” channels. The cell suspension was then removed from the cell inlet port. The device was washed with DPBS before the addition of medium to the inlet ports of the device. In select experiments, PI3K activity was inhibited by the addition of 10 μM LY294002 in the medium through the entire course of migration. The migration chamber was moved to a temperature- and CO2-controlled stage-top live cell incubator (Okolab, Italy) mounted on the motorized stage of an inverted Nikon Eclipse Ti microscope (Nikon, Tokyo, Japan) with automated controls (NIS-Elements, Nikon). Migrating cells were imaged with a 10×-magnification phase contrast objective every 10 minutes for up to 16 hours. Analysis of Cell Migration: Video tiles were exported to Image1 for analysis. All cells that entered the channel were tracked while fully inside the channel and before reaching either end of the channel using the lmageJ MTrackJ plugin at 10 minute intervals. Cells were also dynamically traced with the imageJ polygon ROI capability at 30 minute intervals. Dividing cells were not tracked. […]

MDA-MB-231 cells = experiment: Microchannel migration device assay, MDA-MB-231 cells; assay type: cell-based, human
Protocol: Cell seeding and live cell migration experiments: Cells were grown to continency, trypsinized, and resuspended in serum-free medium at 2×10^6 cells/ml. 50 μl of cell suspension was added to the cell inlet well. Cells were incubated in the device for 5-10 minutes at 37° C. to allow initial cell seeding at the base of “Y” channels. The cell suspension was then removed from the cell inlet port. The device was washed with DPBS before the addition of medium to the inlet ports of the device. In select experiments, PI3K activity was inhibited by the addition of 10 μM LY294002 in the medium through the entire course of migration. The migration chamber was moved to a temperature- and CO2-controlled stage-top live cell incubator (Okolab, Italy) mounted on the motorized stage of an inverted Nikon Eclipse Ti microscope (Nikon, Tokyo, Japan) with automated controls (NIS-Elements, Nikon). Migrating cells were imaged with a 10×-magnification phase contrast objective every 10 minutes for up to 16 hours. Analysis of Cell Migration: Video tiles were exported to Image1 for analysis. All cells that entered the channel were tracked while fully inside the channel and before reaching either end of the channel using the lmageJ MTrackJ plugin at 10 minute intervals. Cells were also dynamically traced with the imageJ polygon ROI capability at 30 minute intervals. Dividing cells were not tracked. Cell position data were used to calculate cell speed over each 10 minute interval, and these speeds were averaged to get an overall average speed for each cell. Additionally, the chemotactic index, defined as the cell displacement divided by the total distance travelled by the cell, was calculated. Cell shape data were used to calculate cell circularity and fit elliptical angle using the Measure function in ImageJ Statistical significance was assessed with non-paired Student's t-test. Cells were further defined as migratory or non-migratory. Migratory cells were defined as those cells which reached the bifurcation in the Y-shaped microchannel; all other cells were defined as non-migratory. Migratory cells were then classified as contact guided or not contact guided. Cells were defined as contact guided if they continued to the branch channel on the side of the base channel on which they were migrating when the bifurcation was reached. Cells that switched walls in the bifurcation region were classified as not contact guided.

[1] = 10 μM LY294002, 200 μm-long microchannels
[2] = 10 μM LY294002, 200 μm-long microchannels (FIG. 5)

`O=c1cc(N2CCOCC2)oc2c(-c3ccccc3)cccc12` [LY294002] was tested, and the “migration in the device, change vs control” value (Bt549 cells) was “decreased”, the “migration in the device, change vs control” value (MDA-MB-231 cells; 10 μM LY294002 (FIG. 9)) was “increased” and the “average cell speed vs control” value (MDA-MB-231 cells; [1]) was “the same; also recorded: same average speed”. For the same compound, the “chemotactic index vs control” value (MDA-MB-231 cells; [1]) was “greater than that of control cells; also recorded: higher chemotactic index”, the “percentage of cells that were contact guided, change vs control” value (MDA-MB-231 cells; [2]) was “increased” and the “percentage of cells that were migratory, change vs control” value (MDA-MB-231 cells; [2]) was “increased”.
